# Test results as given in PubChem BioAssay AID2685 (National Center for Advancing Translational Sciences (NCATS), 2010).
# This is one part of the list. Shown are side measurements of this screen, not its main read-out; they come without a call. Compounds called inactive in the main read-out are mostly missing here. Words in brackets tell the shape of the fitted curve; partial curves, single points and poor fits give uncertain potencies.
# Assay: qHTS Assay for Lipid Storage Modulators in Drosophila S3 Cells;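 on cell number change: cells counted by Cell Tracker Red CMTPX staining in the red channel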
# Conditions: BODIPY lipid droplet fluorescence, 18-24 h; for cell number change: measured here: cell count max response, cells fed with added oleic acid
# Outline: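 Drosophila S3 cells got compounds at several concentrations plus oleic acid (400 uM solution). Laser-scanning cytometry with 488 nm excitation read lipid droplets at 500-530 nm and cells at 575-640 nm. Percent activity was relative to 20 uM Triacsin C.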
# [1] = measured here: lipid fluorescence (Fed channel) AC50, cells fed with added oleic acid
# [2] = measured here: cell number channel AC50, cells fed with added oleic acid
Compound,cell number change [%],AC50 [1],AC50 [2]
CCn1c(CN2CCOCC2)nnc1SCC(=O)Nc1ccc(C)cc1,28.6,"20.6 µM [rising, single point]",
COc1ccc(NC(=O)CCN2C(=O)C3C4C=CC(C4)C3C2=O)cc1 (configuration not stated),107,,
CN(C)CCCNS(=O)(=O)c1ccc(Oc2ncc(C(F)(F)F)cc2Cl)cc1,-58.6,"29.1 µM [falling, single point]","29.1 µM [falling, single point]"
COc1cc(/C=N\Nc2nncn2N)ccc1OC(C)=O,-5.8,,
O=C1c2ccccc2S(=O)(=O)N1Cc1ccccc1[N+](=O)[O-],14.5,"3.26 µM [rising, single point]",
O=C(Cn1c(=S)[nH]c2ccccc2c1=O)N1CCc2ccccc2C1,20.4,,
O=C(COC(=O)CCC(=O)c1ccc(Cl)cc1)NCCc1ccccc1,-5.82,"0.651 µM [falling, single point]","0.731 µM [falling, single point]"
COc1ccc(-c2cc(C(=O)NCc3ccc(Cl)cc3)no2)cc1OC,15.9,"25.9 µM [rising, single point]",
O=C(CN1C(=O)C2CC=CCC2C1=O)Nc1ccc(S(=O)(=O)Nc2nccs2)cc1 (configuration not stated),-17.3,"32.6 µM [falling, single point]",
Cc1cc(C)cc(NC(=S)N2CCC(NC(=O)C3CCCCC3)CC2)c1,38.3,,"1.16 µM [rising, partial curve]"
COc1ccccc1CCC(=O)Nc1cccc(S(=O)(=O)N2CCCC2)c1,32.7,,"35.5 µM [rising, single point]"
COc1cccc(/C=N/NC(=S)Nc2cccc(S(=O)(=O)N(C)C)c2)c1,16,"18.4 µM [rising, single point]",
CCN(CC(=O)N1CCN(Cc2ccccc2)CC1)S(=O)(=O)c1ccc(C)cc1,,"29.1 µM [rising, single point]",
CC(C)Sc1nc2ncnc(N)c2[nH]1,8.68,,
COc1ccc(NC(=O)C(NC(=O)OC(C)(C)C)C(C)OCc2ccccc2)cc1 (configuration not stated),-24.4,"20.6 µM [falling, single point]",
CCOc1ccc(NC(=O)CCC(=O)N/N=C(\C)c2cccs2)cc1,,"18.4 µM [rising, single point]","1.03 µM [rising, full curve, poor fit]"
COc1ccc(C2c3[nH]c4ccccc4c3C[C@H]3C(=O)N(C4CCN(Cc5ccccc5)CC4)CC(=O)N23)c(OC)c1 (some centres not stated),23.6,,
O=C(CCCCCN1C(=O)[C@@H]2Cc3ccccc3CN2C1=O)Nc1cccc(F)c1,,"18.4 µM [falling, single point]",
Cc1cc(Br)ccc1NC(=O)CCS(=O)(=O)c1cccc2nonc12,21.9,,
Cc1ccc(C)c(/C=N/NC(=S)NC(C)C)c1,0.167,,
CC1CCN(C(=O)c2ccc(NS(C)(=O)=O)cc2)CC1,5.01,"0.58 µM [rising, partial curve, poor fit]","0.461 µM [rising, single point]"

# For reference, 3 of the compounds above.
Compound,cell number change [%],AC50 [1],AC50 [2]
CCn1c(CN2CCOCC2)nnc1SCC(=O)Nc1ccc(C)cc1,28.6,"20.6 µM [rising, single point]",
COc1ccc(NC(=O)CCN2C(=O)C3C4C=CC(C4)C3C2=O)cc1 (configuration not stated),107,,
CN(C)CCCNS(=O)(=O)c1ccc(Oc2ncc(C(F)(F)F)cc2Cl)cc1,-58.6,"29.1 µM [falling, single point]","29.1 µM [falling, single point]"

# Continuation.

Compound,cell number change [%],AC50 [1],AC50 [2]
O=C(c1cccs1)N1CCN(Cc2cccnc2)CC1,2.03,"20.6 µM [rising, single point]",
CCC(=O)N1CCN(c2ccccc2NC(=O)c2cccc(C)c2)CC1,,"0.517 µM [rising, single point]",
O=C1c2ccccc2C(=O)N1Cc1nc2ccccc2o1,-18.8,,
Nc1cc(=O)[nH]c(SCC(=O)Nc2ccccc2Sc2ccc(Cl)cc2)n1,-41.1,"0.13 µM [falling, full curve, poor fit]","7.31 µM [falling, partial curve]"
CCOC(=O)c1ccc(NC(=O)C2CC(=O)N=C(N)S2)cc1 (configuration not stated),23.4,,
CC(NC(=O)CCC(=O)c1ccccc1)c1ccc(F)cc1 (configuration not stated),,"1.84 µM [rising, partial curve]",
O=C(Cn1c(=O)n(-c2cccc(C(F)(F)F)c2)c(=O)c2sccc21)NCC1CCCO1 (configuration not stated),21.8,,
Cc1ccc(NC(=O)CSC(C)C(=O)OC(C)C(=O)NC2CCCCC2C)cc1 (configuration not stated),-0.323,,
O=C(NC1CCCCCC1)c1cc(S(=O)(=O)N2CCCCC2)ccc1N1CCOCC1,61.8,"0.0184 µM [rising, full curve, poor fit]","0.00461 µM [rising, full curve, poor fit]"
Cc1cc(C)n(Cc2cccc(C(=O)N/N=C/c3cccnc3)c2)n1,-6.91,"0.13 µM [rising, full curve, poor fit]",
O=C(O)c1cc(-c2cccs2)nc2ccc(Br)cc12,-9.72,"3.66 µM [rising, partial curve]",
CCC(=O)Nc1ccc(C(=O)Nc2ccc3c(c2)C(=O)N(CC2CCCO2)C3=O)cc1 (configuration not stated),-13.7,"6.51 µM [falling, single point]",
CC(C)CC(=O)Nc1ccnc(-c2ccncc2)n1,8.46,,
CCC(=O)Nc1ccc(Cl)c(NC(=O)c2c(OC)cccc2OC)c1,,"2.06 µM [falling, partial curve]","3.66 µM [falling, partial curve]"
CC(C)(C)c1nc2scc(-c3cccs3)c2c(=O)o1,-45.7,"29.1 µM [falling, single point]","23.1 µM [falling, partial curve]"
COC(=O)c1ccc(C(NC(=O)OCc2ccccc2)/C(F)=C/[C@@H](C)C(=O)NCc2ccc(-c3ccccc3)cc2)cc1 (some centres not stated),27.7,"0.0731 µM [falling, partial curve, poor fit]",
COc1cccc(N(CC(=O)Nc2cccc(C(C)=O)c2)S(C)(=O)=O)c1,,"29.1 µM [rising, single point]",
CCOC(=O)N1CCN(S(=O)(=O)N2CCCC(C(=O)NCc3cccc(OC)c3)C2)CC1 (configuration not stated),-2.12,"4.11 µM [falling, single point]",
Cc1ccc(C(C(=O)NC(C)(C)C)N(CC2CCCO2)C(=O)Cn2nnc(-c3ccc(C)o3)n2)cc1 (configuration not stated),-41,"25.9 µM [falling, partial curve]","8.2 µM [falling, partial curve]"
C/[N+]([O-])=C1\Cc2ccccc2C1=O,2.17,"4.11 µM [falling, single point]",
CN(C)c1ccc(C(=O)OCC(=O)N2CCCC2)cc1,-6.31,,

Compound,cell number change [%],AC50 [1],AC50 [2]
N/C(=N/OC(=O)c1ccccc1F)c1nonc1N,4.11,,"4.11 µM [falling, single point]"
O=C(Cn1cc(C(F)(F)F)ccc1=O)NC1CCCC1,9.45,"1.16 µM [falling, partial curve]","1.46 µM [falling, partial curve]"
COc1ccc(OC)c(CCNC(=O)CCc2nnc3ccc(N4CCOCC4)nn23)c1,-11.6,,
CCCn1c(=O)c(C(=O)Nc2ncccc2O)c(O)c2ccccc21,-7.72,"1.3 µM [rising, full curve]",
COc1ccccc1N1N=C(c2cccs2)CC1c1ccccc1 (configuration not stated),-36.1,"1.03 µM [falling, full curve, poor fit]","0.092 µM [falling, full curve, poor fit]"
c1ccc(Oc2cccc(CN3CCOCC3)c2)cc1,3.51,"13 µM [rising, partial curve, poor fit]",
Cc1nn(C)c(C)c1CN(C)C(=O)c1cc2nc(-c3ccco3)cc(C(F)(F)F)n2n1,68.3,"3.66 µM [rising, partial curve]","29.1 µM [rising, single point]"
O=C(c1ccc(Br)s1)N1CCN(C/C=C/c2ccccc2)CC1,9.88,,
Cc1ccc(CNc2ccc(CNc3ncn[nH]3)cc2)cc1,,,"2.31 µM [rising, partial curve, poor fit]"
Cc1ccc(/C=C2/Sc3ccccc3N(CC(=O)NCCCOC(C)C)C2=O)cc1,-7.91,,"7.31 µM [falling, single point]"
O=C(CSc1nncn1-c1ccccc1)NC1CCCCC1,15.8,"6.51 µM [falling, single point]",
CC(=O)c1ccc(Nc2nc(-c3cccnc3)cs2)cc1,12.4,"29.1 µM [rising, single point]",
COc1ccccc1N(Cc1ccccc1)S(=O)(=O)c1cccc(C(=O)NCC2CCCO2)c1 (configuration not stated),-28.4,"0.259 µM [falling, partial curve, poor fit]",
COc1ccc(CCNC(=S)NC(=O)c2cccc([N+](=O)[O-])c2)cc1OC,-3.79,"25.9 µM [falling, single point]",
CC1CCN(c2nc3c(c(=O)[nH]c(=O)n3C)n2CCSc2nc3ccccc3o2)CC1,-33.3,"3.66 µM [falling, full curve]","3.66 µM [falling, full curve]"
CCN(CC)S(=O)(=O)c1ccc(N2CCOCC2)c(C(=O)O)c1,-7.14,"0.651 µM [falling, full curve]",
CCOC(=O)c1c(NC(=O)c2ccoc2C)sc(C(=O)N(C)C)c1C,52.4,,"18.4 µM [rising, partial curve]"
Cc1cc(=O)oc2cc(OCC(=O)Nc3c(C)n(C)n(-c4ccccc4)c3=O)c(Cl)cc12,38,,"2.31 µM [rising, full curve]"
O=C(CSc1nc2nn(-c3ccccc3)c(=O)c-2c2n1CCCCC2)c1ccc(O)c(O)c1,-16.7,"0.326 µM [falling, full curve, poor fit]",
